# PubChem BioAssay AID652272, Drosophila RNAi Screening Center, 2013
# Screen: 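Genes whose knock-down decreases or increases Hedgehog reporter output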 (primary screen)
# Cell system: Drosophila clone 8 (Cl8) cells
# Reagent: long dsRNA against Drosophila genes
# Measurement: 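Plate reader light from a firefly reporter under a ptc promoter fragment that responds to Hedgehog, with Renilla light as transfection reference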
# Scale: firefly Hh reporter signal: higher = more ptc reporter light; Renilla reference signal: higher = more Renilla control light
# Active means: 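Called a hit if the two-replicate mean z-score lies below -2 or above +3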
# Meaning of the calls: active = hit: reporter lowered or raised; inactive = not a hit
# The screen tested about 21,000 reagents; shown is a random part of those with a known target gene and a result. Of all reagents, 503 (2.4%) were called active. 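Raw plate light values, not normalised; calls rest on replicate z-scores that were not deposited; hits include reporter decreases as well as increases.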 A number with no mark means an inactive call. The record does not give: the amount of reagent, the time to read-out.
target gene,amplicon,"firefly Hh reporter signal, replicate 1","firefly Hh reporter signal, replicate 2","firefly Hh reporter signal, replicate 3","Renilla reference signal, replicate 1","Renilla reference signal, replicate 2"
CG17199 (GeneID 42401),DRSC15192,4.65e5,95696,,23669,2773
GstD7 (GeneID 48340),DRSC16688,1.63e5,1.88e5,,5608,5629
CG5850 (GeneID 34327),DRSC02905,76779,45895,,3509,2150
CG33640 (GeneID 3772680),DRSC01324,6.62e5,2.31e5,,31993,8995
x16 (GeneID 33967),DRSC00960,8.38e5,2.43e5,,40905,9591
x16 (GeneID 33967),DRSC03638,1.08e5,89568,,4026,3365
Fam92 (GeneID 34654),DRSC02952,80634,74419,,4296,3049
Eph (GeneID 43803),DRSC17164,76838,2.69e5,,1674,9028
CG11125 (GeneID 35669),DRSC06042,81552,43449,,1968,4071
Snap24 (GeneID 41193),DRSC16864,63432,1.28e5,,1680,3905
MCTS1 (GeneID 31536),DRSC18393,1.07e5,85617,,2832,2564
sturkopf (GeneID 38150),DRSC08637,85650,62482,,4193,2539
CG3548 (GeneID 37932),DRSC04387,71616,62114,,2946,2528
Glut1 (GeneID 38109),DRSC07927,81771,3.59e5,,2579,14139
Glut1 (GeneID 38109),DRSC08378,75061,47016,,2160,3281
Glut1 (GeneID 38109),DRSC08662,1.08e5,1.11e5,,4490,4068
CG3348 (GeneID 50082),DRSC15480,78316,1.20e5,,2724,3926
msd5 (GeneID 38156),DRSC08560,50432,31938,,2296,2404
CG16704 (GeneID 33589),DRSC00475,1.82e5,72580,,4224,6960
CG2652 (GeneID 31250),DRSC18501,1.43e5,8.54e5,1.43e5,3353,50816
Mal-A4 (GeneID 35827),DRSC07236,75811,34560,,1763,3058
PIG-K (GeneID 31163),DRSC18496,83260,2.24e5,,3379,7928
CG18449 (GeneID 35810),DRSC06754,71601,62050,,1773,5352

Entries above whose gene name begins with S or s (2):
target gene,amplicon,"firefly Hh reporter signal, replicate 1","firefly Hh reporter signal, replicate 2","firefly Hh reporter signal, replicate 3","Renilla reference signal, replicate 1","Renilla reference signal, replicate 2"
Snap24 (GeneID 41193),DRSC16864,63432,1.28e5,,1680,3905
sturkopf (GeneID 38150),DRSC08637,85650,62482,,4193,2539
